PubChem BioAssay AID1159508, Drosophila RNAi Screening Center – 2015
In all, the deposit lists 812 reagents; below is a part drawn at random. Of all reagents, 18 (2.2%) are marked active. 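Calls include both increased and decreased ATP; roughly one in four reagents has no third replicate value.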 Reagents against one gene are numbered here. Names joined by + are all predicted targets of the reagent. Not all columns of the deposit are shown. Not given: the amount of reagent.

- Aim: 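Overall cell fitness after RNAi as a quality check of the library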
- Cells: Drosophila S2R+ cells
- Reagents: long dsRNA against Drosophila genes
- Duration: 5 days
- Detection: 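Luminescent ATP signal as a proxy for cell fitness after 5 days of RNAi, given as a z-score in each replicate and averaged over replicates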
- Direction: mean ATP z-score and ATP z-score: higher = more total ATP luminescence
- Hit rule: In these data the active calls have mean ATP z-score at about -2 or lower, or at about 2 or higher
- Calls: active = strong ATP change (up or down); inactive = no strong ATP change

no.	target	reagent	mean ATP z-score	ATP z-score, replicate 1	ATP z-score, replicate 2	Call
1	bsf (bicoid stability factor)	1	-0.385	-0.601	-0.538	inactive
2	bsf (bicoid stability factor)	2	-0.981	-0.992	-0.946	inactive
3	CG3294	1	-0.0393	-0.387	-0.13	inactive
4	CG3294	2	-1.02	-1.41	-1.13	inactive
5	Rbp9 (RNA-binding protein 9)	1	-1.01	-0.946	-0.941	inactive
6	Rbp9 (RNA-binding protein 9)	2	-0.0418	-0.157	0.0788	inactive
7	Rnp4F (RNA-binding protein 4F)	1	-0.26	-0.326	-0.161	inactive
8	Rnp4F (RNA-binding protein 4F)	2	-0.59	-0.977	-0.384	inactive
9	CG18596	1	-0.308	-0.301	-0.275	inactive
10	CG18596	2	0.0706	-0.498	0.0748	inactive
11	eIF1 (eukaryotic translation initiation factor 1)	1	0.517	-0.252	0.543	inactive
12	eIF1 (eukaryotic translation initiation factor 1)	2	0.973	0.216	0.848	inactive
13	qkr58E-3 (quaking related 58E-3)	1	-0.354	-0.527	-0.5	inactive
14	qkr58E-3 (quaking related 58E-3)	2	-0.222	-0.45	-0.311	inactive
15	l(3)07882 (lethal (3) 07882)	1	0.877	0.665	0.976	inactive
16	l(3)07882 (lethal (3) 07882)	2	-0.116	-0.4	-0.303	inactive
17	Vps36 (Vacuolar protein sorting 36)	1	0.362	0.0802	0.305	inactive
18	Vps36 (Vacuolar protein sorting 36)	2	-0.0105	-0.226	-0.0366	inactive
19	x16 (x16 splicing factor)	1	0.175	-0.136	0.0758	inactive
20	x16 (x16 splicing factor)	2	-0.75	-0.708	-0.696	inactive
21	snf (sans fille)	1	-0.688	-0.988	-0.55	inactive
22	snf (sans fille)	2	-1.16	-1.7	-0.48	inactive
23	Hexim (Hexamethylene bisacetamide inducible)	1	-0.257	-0.562	-0.241	inactive
24	Hexim (Hexamethylene bisacetamide inducible)	2	-0.176	-0.275	-0.245	inactive
25	blanks	1	-0.107	-0.574	0.0244	inactive
26	blanks	2	0.235	-0.406	0.358	inactive
27	CG9346	1	1.04	0.73	0.887	inactive
28	CG9346	2	-0.307	-0.406	-0.309	inactive
29	Slbp (Stem-loop binding protein)	1	0.146	-0.409	-0.08	inactive
30	Slbp (Stem-loop binding protein)	2	0.0313	-0.428	0.149	inactive
31	Pcf11 (Pcf11 cleavage and polyadenylation factor subunit)	1	0.577	0.0484	0.696	inactive
32	Pcf11 (Pcf11 cleavage and polyadenylation factor subunit)	2	1.71	1.47	1.73	inactive
33	Psi (P-element somatic inhibitor)	1	1.44	0.761	1	inactive
34	Psi (P-element somatic inhibitor)	2	1.52	1.09	1.76	inactive
35	eIF3e (eukaryotic translation initiation factor 3 subunit e)	1	0.792	-0.0196	0.971	inactive
36	eIF3e (eukaryotic translation initiation factor 3 subunit e)	2	0.366	0.124	0.45	inactive

The list goes on, starting with the last 2 of the part before.
no.	target	reagent	mean ATP z-score	ATP z-score, replicate 1	ATP z-score, replicate 2	Call
35	eIF3e (eukaryotic translation initiation factor 3 subunit e)	1	0.792	-0.0196	0.971	inactive
36	eIF3e (eukaryotic translation initiation factor 3 subunit e)	2	0.366	0.124	0.45	inactive
37	Ddx1 (Dead-box-1)	1	-0.232	-0.42	-0.324	inactive
38	Ddx1 (Dead-box-1)	2	-0.416	-0.674	-0.273	inactive
39	CG8611	1	0.574	0.395	0.484	inactive
40	CG8611	2	0.625	0.49	0.578	inactive
41	c12.1	1	-0.461	-0.579	-0.461	inactive
42	c12.1	2	0.00211	-0.142	0.0196	inactive
43	Irp-1A (Iron regulatory protein 1A)	1	-0.337	-0.609	-0.249	inactive
44	Irp-1A (Iron regulatory protein 1A)	2	-0.314	-0.425	-0.263	inactive
45	mask (multiple ankyrin repeats single KH domain)	1	1.36	0.745	1.5	inactive
46	mask (multiple ankyrin repeats single KH domain)	2	0.722	0.116	0.804	inactive
47	Hrb98DE (Heterogeneous nuclear ribonucleoprotein at 98DE)	1	0.977	0.489	0.89	inactive
48	Hrb98DE (Heterogeneous nuclear ribonucleoprotein at 98DE)	2	0.602	0.269	0.413	inactive
49	CG6961 + CG18259	1	0.641	0.31	0.425	inactive
50	CG6961 + CG18259	2	-0.58	-0.738	-0.607	inactive
51	CG7488	1	-0.192	-0.417	-0.108	inactive
52	CG7488	2	0.506	-0.142	0.666	inactive
53	eIF3l (eukaryotic translation initiation factor 3 subunit l)	1	-0.404	-0.559	-0.554	inactive
54	eIF3l (eukaryotic translation initiation factor 3 subunit l)	2	-0.636	-0.682	-0.563	inactive
55	Rsf1 (Repressor splicing factor 1)	1	0.0348	-0.0782	-0.00273	inactive
56	Rsf1 (Repressor splicing factor 1)	2	0.281	0.165	0.361	inactive
57	CG5808	1	-0.251	-0.94	-0.0658	inactive
58	CG5808	2	-0.504	-0.692	-0.472	inactive
59	CG14506	1	0.638	0.357	0.608	inactive
60	CG14506	2	-0.446	-0.651	-0.369	inactive
61	CG9630	1	-0.384	-0.66	-0.326	inactive
62	CG9630	2	-0.177	-0.396	-0.258	inactive
63	CG14443	1	1.51	1.1	1.33	inactive
64	CG14443	2	-0.0484	-0.568	0.155	inactive
65	AGO1 (Argonaute-1)	1	3.06	2.78	2.95	active
66	AGO1 (Argonaute-1)	2	3.38	3.04	3.2	active
67	mEFTu2 (mitochondrial translation elongation factor Tu 2)	1	-0.279	-0.609	-0.232	inactive
68	mEFTu2 (mitochondrial translation elongation factor Tu 2)	2	-1	-1.06	-0.819	inactive
69	msi (musashi)	1	2.74	1.9	2.61	active
70	msi (musashi)	2	1.19	0.777	1.45	inactive
71	CG4849	1	-1.02	-1.37	-0.752	inactive
72	CG4849	2	-1.03	-1.16	-0.894	inactive
73	su(f) (suppressor of forked)	1	1.35	0.838	1.31	inactive
74	su(f) (suppressor of forked)	2	0.968	0.836	0.975	inactive
75	qkr58E-2 (quaking related 58E-2)	1	-0.116	-0.187	-0.0314	inactive
76	qkr58E-2 (quaking related 58E-2)	2	0.184	0.127	0.137	inactive
